Test system: contrast induced nephropathy in diabetic animal model
Experiment: CIN in diabetic (HFD/STZ) rats with iohexol, Experiment 2
Format: in vivo, rat
Description: In this experiment, 30 SD rats were fed with high fat diet for 6 weeks, followed by the injection with low dose streptozotocin (30 mg/kg). After 9 more weeks, the rats were used in the contrast induced nephropathy study. The animals were divided into 2 groups with the doses, dosing schedules and study protocol as follows. On day 0, the weight of the animals was determined and glucose and serum samples were collected. On day 1, Scr was assayed and spot urine collection performed. On days 2 and 3, 3 mg/kg SS-31 (Group 1) or a vehicle (Group 2) was administered s.c. 30 min prior to the dye injection (6 mL/kg i.v. tail vein). SS-31 (Group 1) or PBS (Group 2) administration was repeated at 2 h, 1 day, 2, days, 3 days, 4 days, and 5 day post-dye administration. On day 8, serum and urine samples were collected and the rats were euthaniszed to harvest kidneys and vital organs.
Renal function: Renal function was assessed by determining serum and urinary creatinine using Jiancheng Cr kit (Nanjing, P.R.C) at baseline, 24 h, 3 day and 6 days following contrast dye (Iohexol) administration. The creatinine clearance was calculated based on the Scr, Ucr and Urinary volume. Samples were analyzed by students t-test and differences were considered significant at p<0.05.

D-Arg-2′6′Dmt-Lys-Phe-NH2 [SS-31]
Body weight (T1 (24 h post dye)): 566.5 ± 20.3 g | Body weight (T2 (3 day post dye)): 565.6 ± 21 g | Body weight (T3 (6 days post dye)): 558.3 ± 20.1 g
